Drawing on patent publication US20140294819A1 (NVIP, published 2014), this text covers binding for six molecules.

Chains of the proteins cited; added tags and fusions are not shown. Lines headed by an entry give the natural chain unless they say otherwise; changes in a name come on top. A line that says so, or that is headed by a name, gives the form on record, which may keep a tag or linker.
soluble recombinant canine high affinity Fc receptor (scaCD64) (Q7YQJ5, form named): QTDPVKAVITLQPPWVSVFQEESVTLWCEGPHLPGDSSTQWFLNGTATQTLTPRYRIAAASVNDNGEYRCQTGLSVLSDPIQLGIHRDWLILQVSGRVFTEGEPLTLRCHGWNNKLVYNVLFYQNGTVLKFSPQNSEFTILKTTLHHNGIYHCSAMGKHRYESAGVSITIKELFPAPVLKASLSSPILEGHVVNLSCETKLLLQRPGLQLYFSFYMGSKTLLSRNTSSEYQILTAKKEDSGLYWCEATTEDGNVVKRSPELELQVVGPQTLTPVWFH

First the molecules themselves.
B1: chimeric mouse-canine RA2, HCB isotype (antibody)
heavy: QVQLKQSGPGLVPPSQSLSITCTVSGFSLTNYGVHWVRQSPGKGLEWLGVIWSGGTTDYNAAFISRLSISKDNSKSQVFFKMNSLQADDTAIYYCARGPRKFYYYGMDYWGQGTSVTVSSASTTAPSVFPLAPSCGSTSGSTVALACLVSGYFPEPVTVSWNSGSLTSGVHTFPSVLQSSGLYSLSSMVTVPSSRWPSETFTCNVAHPASKTKVDKPVPKRENGRVPRPPDCPKCPAPEMLGGPSVFIFPPKPKDTLLIARTPEVTCVVVDLDPEDPEVQISWFVDGKQMQTAKTQPREEQFNGTYRVVSVLPIGHQDWLKGKQFTCKVNNKALPSPIERTISKARGQAHQPSVYVLPPSREELSKNTVSLTCLIKDFFPPDIDVEWQSNGQQEPESKYRTTPPQLDEDGSYFLYSKLSVDKSRWQRGDTFICAVMHEALHNHYTQESLSHSPGK
light: DVLMTQTPLSLPVSLGDQASISCRSSQSIVHSNGNTYLEWYLQKPGQSPKLLIYKVSNRFSGVPDRFSGSGSGTDFTLKISRVEAGDLGVYYCFQGLHVPLTFGAGTRLELKRNDAQPAVYLFQPSPDQLHTGSASVVCLLNSFYPKDINVKWKVDGVIQDTGIQESVTEQDKDSTYSLSSTLTMSSTEYLSHELYSCEITHKSLPSTLIKSFQRSECQRVD
notes: also called chiRA2-B; chimeric RA2
B2: chimeric mouse-canine RF2, HCB isotype (antibody)
heavy: B1 heavy with V24I, N31S, K43W, T56S, T57I, F80I, Y105F
light: B1 light with L3V, S28N, L38V, G86E, L97S, R108K
notes: also called chiRF2-B; chimeric RF2
B3: caninised RA2, HCC isotype (antibody)
heavy: EVQLVQSGGGLVKPTESLTISCVVSGFSLTNYGVHWVRQSPGKGLEWLGVIWSGGTTDYNAAFISRLSISKDNSKSTVFLRMNSLRADDTAIYYCARGPRKFYYYGMDYWGQGTSVTVSSASTTAPSVFPLAPSCGSQSGSTVALACLVSGYIPEPVTVSWNSVSLTSGVHTFPSVLQSSGLYSLSSMVTVPSSRWPSETFTCNVAHPATNTKVDKPVAKECECKCNCNNCPCPGCGLLGGPSVFIFPPKPKDILVTARTPTVTCVVVDLDPENPEVQISWFVDSKQVQTANTQPREEQSNGTYRVVSVLPIGHQDWLSGKQFKCKVNNKALPSPIEEIISKTPGQAHQPNVYVLPPSRDEMSKNTVTLTCLVKDFFPPEIDVEWQSNGQQEPESKYRMTPPQLDEDGSYFLYSKLSVDKSRWQRGDTFICAVMHEALHNHYTQISLSHSPGK
light: B1 light with V2I, L3V, P12S, L15Q, G16E, D17E, Q18E, L88A, R108K
notes: See note of m19; also called caRA2-C
B4: caninised RA2, HCB isotype (antibody)
heavy: EVQLVQSGGGLVKPTESLTISCVVSGFSLTNYGVHWVRQSPGKGLEWLGVIWSGGTTDYNAAFISRLSISKDNSKSTVFLRMNSLRADDTAIYYCARGPRKFYYYGMDYWGQGTSVTVSSASTTAPSVFPLAPSCGSTSGSTVALACLVSGYFPEPVTVSWNSGSLTSGVHTFPSVLQSSGLYSLSSMVTVPSSRWPSETFTCNVAHPASKTKVDKPVPKRENGRVPRPPDCPKCPAPEMLGGPSVFIFPPKPKDTLLIARTPEVTCVVVDLDPEDPEVQISWFVDGKQMQTAKTQPREEQFNGTYRVVSVLPIGHQDWLKGKQFTCKVNNKALPSPIERTISKARGQAHQPSVYVLPPSREELSKNTVSLTCLIKDFFPPDIDVEWQSNGQQEPESKYRTTPPQLDEDGSYFLYSKLSVDKSRWQRGDTFICAVMHEALHNHYTQESLSHSPGK
light: B1 light with V2I, L3V, P12S, L15Q, G16E, D17E, Q18E, L88A, R108K
notes: also called caRA2-B
B5: caninised RF2, HCC isotype (antibody)
heavy: B3 heavy with V24I, N31S, T56S, T57I, L80I, Y105F
light: DIVMTQTPLSLSVSQEEEASISCRSSQNIVHSNGNTYVEWYLQKPGQSPKLLIYKVSNRFSGVPDRFSGSGSGTDFTLKISRVEAEDAGVYYCFQGSHVPLTFGAGTKLELKRNDAQPAVYLFQPSPDQLHTGSASVVCLLNSFYPKDINVKWKVDGVIQDTGIQESVTEQDKDSTYSLSSTLTMSSTEYLSHELYSCEITHKSLPSTLIKSFQRSECQRVD
notes: also called caRF2-C
B6: caninised RF2, HCB isotype (antibody)
heavy: B4 heavy with V24I, N31S, T56S, T57I, L80I, Y105F
light: B5 light
notes: also called caRF2-B

Positions count from the first letter of the chain named. Results are given in words; binding and its absence hold for the method and conditions named. Some entries that bind do so weakly or less than the wild type.

In the assay the target is soluble recombinant canine high affinity Fc receptor (scaCD64) (canine) (UniProt Q7YQJ5). In words: scaCD64 binding to antibody captured on caCD20 peptide.
Regarding B1, the binding entry is given as “binds”.

Consider B2, for which the binding entry is “binds”.

For B3, the binding result is “binds”.

Consider B4, for which the binding result is “binds”.

As for B5, the binding entry is on record as “binds”.

On to B6, for which the binding result was “binds”.
